Experimental data from patent US20170001990A1 (Genentech, Inc., priority 2014, published 2017).
Structures were worked out from names or drawings and are uncertain.

Molecular target: Human recombinant carboxy-terminal his-tagged LDHA (amino acids 2-332) (Homo sapiens, UniProt P00338)

Structure (SMILES)	IC50 [nM]
CC(CC1CC1)Oc1cccc(C2(c3ccsc3)CC(=O)C(Sc3ccccc3Cl)C(=O)N2)n1 (centres unmarked)	117
O=C(NCC1CC1)c1cccc(C2(c3ccsc3)CC(=O)C(Sc3ccccc3Cl)C(=O)N2)n1 (centres unmarked) [Example 242, 6-[5-(2-chlorophenyl)sulfanyl-4,6-dioxo-2-(3-thienyl)-2-piperidyl]-N-(cyclopropylmethyl) pyridine-2-carboxamide]	240
